The experiment has as its system B6C3F1 mice, B16 melanoma ip, median survival T/C. The experiment is described as follows: NCI In Vivo Anticancer Drug Screen. Data for tumor model B16 Melanoma (intraperitoneal) in B6C3F1 mice. Particulars: T/C endpoint: median survival time, higher T/C = longer survival. In outline: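 Antitumor effect was judged in mice with transplanted tumors by dividing the treated group's survival measure by that of vehicle controls.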

Setting [1] is: dose: 2.0 mg/kg/injection, schedule: Q01DX009 (ip), vehicle: saline.
Where [2] appears, read: dose: 4.0 mg/kg/injection, schedule: Q01DX009 (ip), vehicle: saline.
Where [3] appears, read: dose: 12.0 mg/kg/injection, schedule: Q01DX001 (ip), vehicle: water.
The mark [4] stands for this setting: dose: 24.0 mg/kg/injection, schedule: Q01DX001 (ip), vehicle: water.

The list shows only some results of the screen, not a fair sample: it is rich in T/C values a quarter to a half above the control, in often repeated tests (any T/C) and in doses without a T/C. Further doses and runs are listed elsewhere. T/C gives the treated animals as a percentage of the vehicle group. Some doses have a count of surviving animals in place of a T/C: the source holds a T/C of zero for them, seemingly a mark for toxic or unscored doses. Some doses without a T/C left all or most animals alive at the check, yet need not have been tolerated: the source hardly ever lists a survival T/C far under the control, and the zero likely stands for such cases as well. Survivors were counted at the toxicity check, usually on the fifth day, unless a day is given; later deaths do not show. Schedule codes are those of the source, read here as Q, the interval in days (D) or hours (H), X, the number of doses. Some doses were run more than once; their values stand side by side, smallest first. Counts like (3×) stand for listed records that agree. For survival time, the PubChem record calls one and a half times the control and up active, and a quarter to a half above the control has no call in these data; cut-offs in other NCI protocols can differ. Some T/C values carry the count of animals alive at the toxicity check (mostly the fifth day); without a count, all were alive then. Where a SMILES comes first, the peptide text is derived from it. [ ]: non-standard residue; d: D form. The star is where a group is joined. Nle = CCCC[CH](N)C(=O)O; Cbz = O=C(OCc1ccccc1)*

`COc1cccc2c1C(=O)c1c(O)c3c(c(O)c1C2=O)C[C@@](O)(C(=O)CO)C[C@@H]3OC1CC(N)C(O)C(C)O1` (stereo not given in full): the T/C by setting is: (dose: 0.12 mg/kg/injection, schedule: Q01DX009 (ip), vehicle: saline) 138 % of control; (dose: 0.25 mg/kg/injection, schedule: Q01DX009 (ip), vehicle: saline) 149, 161, 165, 193, 203 (2×), 203 [9 of 10 alive], 205, 239 % of control; (dose: 0.5 mg/kg/injection, schedule: Q01DX001 (ip), vehicle: saline) 127 % of control; (dose: 0.5 mg/kg/injection, schedule: Q01DX001 (ip), vehicle: water) 141, 148, 155, 176 % of control; (dose: 0.5 mg/kg/injection, schedule: Q01DX009 (ip), vehicle: saline) 167, 178, 223, 234, 234 [9 of 10 alive], 236, 244, 260, 271, 284, 329, 331 % of control; (dose: 1.0 mg/kg/injection, schedule: Q01DX001 (ip), vehicle: saline) 149 % of control. For the same compound, the T/C is 114 % of control (dose: 1.0 mg/kg/injection, schedule: Q01DX001 (ip), vehicle: water, evaluated on day 45); 146, 154, 155, 164, 165, 169, 173, 179, 185, 189, 208 % of control (dose: 1.0 mg/kg/injection, schedule: Q01DX001 (ip), vehicle: water, evaluated on day 60); 187, 191 [9 of 10 alive], 205, 219, 242, 272, 289 [9 of 10 alive], 301 [9 of 10 alive], 302, 311 [9 of 10 alive], 333, 346, 347, 348, 357, 363 % of control (dose: 1.0 mg/kg/injection, schedule: Q01DX009 (ip), vehicle: saline); 185, 196, 200 (2×), 213 % of control (dose: 1.5 mg/kg/injection, schedule: Q01DX001 (ip), vehicle: water); 114 % of control (dose: 2.0 mg/kg/injection, schedule: Q01DX001 (ip), vehicle: water, evaluated on day 45); 184, 185 (2×), 187, 195, 196, 204, 207 [9 of 10 alive], 221, 225, 304 % of control (dose: 2.0 mg/kg/injection, schedule: Q01DX001 (ip), vehicle: water, evaluated on day 60). The T/C (dose: 2.0 mg/kg/injection, schedule: Q01DX005 (iv), vehicle: saline) is 132 % of control; the T/C under setting [1] is 122, 217, 219, 222, 232, 271, 277, 289 [9 of 10 alive], 310, 316 [9 of 10 alive], 328, 346, 347 [9 of 10 alive], 355, 363 % of control; the T/C (dose: 3.0 mg/kg/injection, schedule: Q01DX001 (ip), vehicle: water) was 196, 206, 207, 213, 317 % of control; the T/C (dose: 4.0 mg/kg/injection, schedule: Q01DX001 (ip), vehicle: saline, evaluated on day 5) was 191 and 242 % of control; the T/C (dose: 4.0 mg/kg/injection, schedule: Q01DX001 (ip), vehicle: saline, evaluated on day 60) is 209 and 250 % of control; the T/C (dose: 4.0 mg/kg/injection, schedule: Q01DX001 (ip), vehicle: water, evaluated on day 45) is 120 % of control. In addition, the T/C was 125, 198, 199, 200, 226, 237, 247, 261, 277, 292, 304 % of control (dose: 4.0 mg/kg/injection, schedule: Q01DX001 (ip), vehicle: water, evaluated on day 60); 94, 98, 259 % of control under setting [2]; 147 % of control (dose: 4.5 mg/kg/injection, schedule: Q01DX001 (ip), vehicle: saline); 220, 277, 317, 322, 337 % of control (dose: 6.0 mg/kg/injection, schedule: Q01DX001 (ip), vehicle: water); 178 and 278 % of control (dose: 8.0 mg/kg/injection, schedule: Q01DX001 (ip), vehicle: saline, evaluated on day 5); 233 and 300 % of control (dose: 8.0 mg/kg/injection, schedule: Q01DX001 (ip), vehicle: saline, evaluated on day 60). For the same compound, the T/C is, setting by setting: (dose: 8.0 mg/kg/injection, schedule: Q01DX001 (ip), vehicle: water, evaluated on day 45) 123 % of control; (dose: 8.0 mg/kg/injection, schedule: Q01DX001 (ip), vehicle: water, evaluated on day 60) 178, 211, 241, 264, 297, 304, 309 (2×), 317, 320, 346 % of control; (dose: 8.0 mg/kg/injection, schedule: Q01DX001 (iv), vehicle: saline) 136 % of control; under setting [3], 220, 317, 333, 337 % of control; (dose: 16.0 mg/kg/injection, schedule: Q01DX001 (ip), vehicle: saline, evaluated on day 5) 43 [8 of 9 alive] and 78 % of control; (dose: 16.0 mg/kg/injection, schedule: Q01DX001 (ip), vehicle: saline, evaluated on day 60) 118 and 300 % of control. Also, the T/C was 158 % of control [9 of 10 alive] (dose: 16.0 mg/kg/injection, schedule: Q01DX001 (ip), vehicle: water, evaluated on day 45); 95 [8 of 10 alive], 112, 128, 139 [9 of 10 alive], 192, 295, 346 % of control (dose: 16.0 mg/kg/injection, schedule: Q01DX001 (ip), vehicle: water, evaluated on day 60); 145 % of control [9 of 10 alive] (dose: 16.0 mg/kg/injection, schedule: Q01DX001 (iv), vehicle: saline); 115, 151, 160 % of control under setting [4]; 135 % of control (dose: 40.0 micrograms/kg/injection, schedule: Q01DX005 (ip), vehicle: saline). The survivor count is, setting by setting: under setting [1], 10 of 10; (dose: 4.0 mg/kg/injection, schedule: Q01DX005 (ip), vehicle: saline) 10 of 10; (dose: 4.0 mg/kg/injection, schedule: Q01DX005 (iv), vehicle: saline) 10 of 10; under setting [2], 9 of 10 and 10 of 10 (2×); (dose: 4.0 mg/kg/injection, schedule: Q01DX009 (ip), vehicle: water) 10 of 10; (dose: 8.0 mg/kg/injection, schedule: Q01DX005 (ip), vehicle: saline) 7 of 10. In addition, the survivor count reads like this: (dose: 8.0 mg/kg/injection, schedule: Q01DX005 (iv), vehicle: saline) 8 of 10; (dose: 8.0 mg/kg/injection, schedule: Q01DX009 (ip), vehicle: saline) 8 of 10, 9 of 10, 10 of 10; (dose: 8.0 mg/kg/injection, schedule: Q01DX009 (ip), vehicle: water) 8 of 10, 9 of 10, 10 of 10; under setting [3], 6 of 10; (dose: 16.0 mg/kg/injection, schedule: Q01DX001 (ip), vehicle: water) 7 of 10 and 8 of 10; (dose: 16.0 mg/kg/injection, schedule: Q01DX005 (ip), vehicle: saline) 5 of 10. The survivor count runs as follows: (dose: 16.0 mg/kg/injection, schedule: Q01DX005 (iv), vehicle: saline) 5 of 10; (dose: 16.0 mg/kg/injection, schedule: Q01DX009 (ip), vehicle: saline) 10 of 10; (dose: 18.0 mg/kg/injection, schedule: Q01DX001 (ip), vehicle: saline) 6 of 10; under setting [4], 1 of 10 and 10 of 10; (dose: 32.0 mg/kg/injection, schedule: Q01DX001 (ip), vehicle: saline) 9 of 10; (dose: 32.0 mg/kg/injection, schedule: Q01DX001 (iv), vehicle: saline) 8 of 10. Also, the survivor count is 4 of 10 and 10 of 10 (dose: 36.0 mg/kg/injection, schedule: Q01DX001 (ip), vehicle: saline); 0 of 10 and 10 of 10 (dose: 72.0 mg/kg/injection, schedule: Q01DX001 (ip), vehicle: saline).

In the case of `CCCCC(NC(=O)OCc1ccccc1)C(=O)NC(C(=O)O)C(C)C` (stereo not given) (Cbz-[Nle]-Val-OH; configuration not given here), under “dose: 400.0 mg/kg/injection, schedule: Q01DX009 (ip), vehicle: Klucel (hydroxypropylcellulose) (HPC)”, the survivor count is recorded as 7 of 10.

For `COc1cc(C2c3cc4c(cc3C(O)C(CO)C2CO)OCO4)cc(OC)c1OC` (stereo not given), the T/C (dose: 25.0 mg/kg/injection, schedule: Q01DX009 (ip), vehicle: saline with Tween-80) was 129 % of control and the T/C (dose: 50.0 mg/kg/injection, schedule: Q01DX009 (ip), vehicle: saline with Tween-80) was 131 % of control. Moreover, the survivor count is, setting by setting: (dose: 200.0 mg/kg/injection, schedule: Q01DX009 (ip), vehicle: saline with Tween-80) 10 of 10; (dose: 400.0 mg/kg/injection, schedule: Q01DX009 (ip), vehicle: saline with Tween-80) 5 of 8 and 10 of 10.

Values taken from PubChem BioAssay AID200 (DTP/NCI, 2004).
